Earlier results, collected in US12083187B2, “Method of treatment for solid tumors containing hypoxia and/or stroma features” (Wayne State University, priority 2017, dated 2024).
At least one structure is not confirmed: it was looked up by name or label, or the drawing left a doubt.

Test system: RCC
Settings: clinical; cited from earlier work

| SMILES | progression free survival |
| --- | --- |
| CNC(=O)c1ccccc1Sc1ccc2c(/C=C/c3ccccn3)n[nH]c2c1 [Axitinib] | 20 months |
| COc1cc2nccc(Oc3ccc(NC(=O)C4(C(=O)Nc5ccc(F)cc5)CC4)cc3)c2cc1OC [CB, cabozantinib] | > 36 months |
